# Assay results published in PubChem BioAssay AID342 (DTP/NCI, 2004).
# The list does not hold the whole screen: it gathers some chemical classes. Not every dose and run of a compound is shown. T/C: endpoint of the treated group in % of that of the vehicle group. Some T/C values are marked as having no survivor count here; that says nothing about deaths at the dose. Schedules are NCI's codes, read here as Q, the interval in days (D) or hours (H), X, the number of doses. Some schedule codes hold Z or #, which are not explained here.
# System: Swiss mice, Sarcoma 180 sc, mean tumor weight T/C
# Assay: NCI In Vivo Anticancer Drug Screen. Data for tumor model Sarcoma 180 (subcutaneous) in Swiss mice
# Conditions: T/C endpoint: mean tumor weight, schedule: Q#A X014 (ip), vehicle: carboxymethylcellulose (CMC), evaluation day not shown, higher T/C = larger tumour
# Procedure: The antitumor activity of compounds was measured in mice bearing transplantable tumors. Survival or tumor size were measured and the results are expressed as the measurement made in the treated group (T) divided by the measurement made in the vehicle treated control group (C). The tumor model used in this assay is Sarcoma 180 (subcutaneous) in Swiss mice
smiles,measurement,setting,value
CN(CCCl)CCCl,T/C,dose: 0.05 mg/kg/injection,107 % of control [survivor count not shown]
same,T/C,dose: 0.1 mg/kg/injection,100 % of control [survivor count not shown]
same,T/C,dose: 0.2 mg/kg/injection,62 % of control [survivor count not shown]
same,T/C,dose: 0.4 mg/kg/injection,55 % of control [survivor count not shown]
